Results are given in words; binding and its absence hold for the method and conditions named. In cells and extracts the contact can be indirect. Some binding calls cover weakened binding; strength is not graded here.
B1: aurora kinase A (AURKA), endogenous (protein, UniProt O14965 1-403)
chain: MDRSKENCISGPVKATAPVGGPKRVLVTQQFPCQNPLPVNSGQAQRVLCPSNSSQRIPLQAQKLVSSHKPVQNQKQKQLQATSVPHPVSRPLNNTQKSKQPLPSAPENNPEEELASKQKNEESKKRQWALEDFEIGRPLGKGKFGNVYLAREKQSKFILALKVLFKAQLEKAGVEHQLRREVEIQSHLRHPNILRLYGYFHDATRVYLILEYAPLGTVYRELQKLSKFDEQRTATYITELANALSYCHSKRVIHRDIKPENLLLGSAGELKIADFGWSVHAPSSRRTTLCGTLDYLPPEMIEGRMHDEKVDLWSLGVLCYEFLVGKPPFEANTYQETYKRISRVEFTFPDFVTEGARDLISRLLKHNPSQRPMLREVLEHPWITANSSKPSNCQNKESASKQS

The chains behind the UniProt entries cited, without tags or fusion partners. Where a name states a change or a piece, a line headed by the entry shows the natural chain unless it says otherwise.
UniProt P62195: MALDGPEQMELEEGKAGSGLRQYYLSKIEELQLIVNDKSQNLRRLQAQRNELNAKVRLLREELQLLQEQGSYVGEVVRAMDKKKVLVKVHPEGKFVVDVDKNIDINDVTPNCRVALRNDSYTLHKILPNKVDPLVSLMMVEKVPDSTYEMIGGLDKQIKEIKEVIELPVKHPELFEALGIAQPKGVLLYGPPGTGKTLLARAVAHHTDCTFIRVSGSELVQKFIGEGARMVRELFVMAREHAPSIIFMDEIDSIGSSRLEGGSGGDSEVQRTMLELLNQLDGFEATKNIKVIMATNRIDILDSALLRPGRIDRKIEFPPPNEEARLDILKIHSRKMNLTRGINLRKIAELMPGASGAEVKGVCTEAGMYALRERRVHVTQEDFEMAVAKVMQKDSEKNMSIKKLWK
UniProt O75928: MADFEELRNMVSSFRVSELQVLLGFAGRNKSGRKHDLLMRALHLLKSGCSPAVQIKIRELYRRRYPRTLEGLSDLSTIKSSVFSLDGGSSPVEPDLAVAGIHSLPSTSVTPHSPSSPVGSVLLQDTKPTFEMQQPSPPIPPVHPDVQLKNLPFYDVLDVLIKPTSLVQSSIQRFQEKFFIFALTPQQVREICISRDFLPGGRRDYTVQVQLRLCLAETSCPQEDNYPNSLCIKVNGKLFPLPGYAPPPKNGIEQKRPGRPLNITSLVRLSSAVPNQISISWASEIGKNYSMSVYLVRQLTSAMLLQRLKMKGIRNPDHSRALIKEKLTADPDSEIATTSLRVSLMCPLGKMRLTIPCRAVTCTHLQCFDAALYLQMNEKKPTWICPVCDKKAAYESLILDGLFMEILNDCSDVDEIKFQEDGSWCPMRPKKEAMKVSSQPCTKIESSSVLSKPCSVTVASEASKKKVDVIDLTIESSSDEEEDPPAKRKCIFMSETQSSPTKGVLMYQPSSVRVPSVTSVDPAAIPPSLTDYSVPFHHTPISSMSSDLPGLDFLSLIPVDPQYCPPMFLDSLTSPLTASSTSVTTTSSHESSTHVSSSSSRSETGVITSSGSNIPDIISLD
UniProt Q13509: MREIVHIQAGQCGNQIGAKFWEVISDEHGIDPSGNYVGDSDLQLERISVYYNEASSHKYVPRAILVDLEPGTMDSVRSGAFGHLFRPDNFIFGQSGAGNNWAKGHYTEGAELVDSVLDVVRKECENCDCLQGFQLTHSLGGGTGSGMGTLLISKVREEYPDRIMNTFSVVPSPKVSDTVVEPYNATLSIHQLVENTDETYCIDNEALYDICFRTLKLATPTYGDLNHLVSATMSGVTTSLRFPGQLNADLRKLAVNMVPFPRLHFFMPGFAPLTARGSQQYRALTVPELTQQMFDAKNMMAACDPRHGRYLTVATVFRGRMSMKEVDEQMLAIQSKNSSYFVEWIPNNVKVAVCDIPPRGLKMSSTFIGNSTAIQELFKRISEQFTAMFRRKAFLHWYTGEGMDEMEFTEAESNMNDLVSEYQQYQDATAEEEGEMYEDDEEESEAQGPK
UniProt P67775: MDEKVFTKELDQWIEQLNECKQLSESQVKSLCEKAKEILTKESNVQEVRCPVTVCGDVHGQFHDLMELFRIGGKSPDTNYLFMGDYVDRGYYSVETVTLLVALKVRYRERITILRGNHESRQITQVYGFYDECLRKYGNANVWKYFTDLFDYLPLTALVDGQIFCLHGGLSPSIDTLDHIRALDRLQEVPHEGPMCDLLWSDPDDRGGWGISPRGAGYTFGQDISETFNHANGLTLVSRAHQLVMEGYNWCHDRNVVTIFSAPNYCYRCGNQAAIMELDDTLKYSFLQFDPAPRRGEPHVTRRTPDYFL

What was measured:
FLAG-PSMC5 = FLAG-PSMC5 (UniProt P62195); test: co-IP; anti-FLAG (M2) pull down from lysates of cells transfected with FLAG-hPIAS2b or FLAG-PSMC5, protein G-Sepharose, western blot
EGFP-PSMC5 = EGFP-PSMC5 (UniProt P62195); test: pull-down; GFP-Trap beads with 2 mg lysate of 8305C cells transfected with EGFP constructs, SUMO-lysis buffer with N-ethylmaleimide (non-denaturing), 4 °C overnight, western blot; asynchronous, DT/R-0 h and DT/R-6 h cells
[1] = target: PIAS2 beta isoform (PIAS2b), endogenous (human (endogenous in 8305C)) (UniProt O75928); test: co-IP; endogenous proteins in extracts of asynchronous or DT/R-0 h 8305C cells, western blot
FLAG-hPIAS2b (human) [2] = target: FLAG-hPIAS2b (human) (UniProt O75928); test: co-IP; anti-FLAG (M2) pull down from lysates of cells transfected with FLAG-hPIAS2b or FLAG-PSMC5, protein G-Sepharose, western blot
[3] = target: PIAS2 beta isoform (PIAS2b), endogenous (human (endogenous in 8305C)) (UniProt O75928); test: co-IP; endogenous proteins in 8305C extracts synchronized at mitosis (DT/R-6 h; for TUBB3 also DT/R-0 h), antibody overnight, protein G-Sepharose, 5 washes with HNTG buffer, western blot
FLAG-hPIAS2b (human) [4] = target: FLAG-hPIAS2b (human) (UniProt O75928); test: co-IP; transfected exogenous human PIAS2b in DT/R-6 h synchronized mitotic 8305C, western blot; tag and antibody not told in the legend

Molecule | binding (FLAG-PSMC5) | binding (EGFP-PSMC5) | binding [1] | binding (FLAG-hPIAS2b (human) [2]) | binding [3] | binding (FLAG-hPIAS2b (human) [4])
PIAS2 beta isoform (PIAS2b), endogenous (from UniProt O75928-1 1-621) | binds | binds |  |  |  | 
PSMC5, endogenous (from UniProt P62195 1-406) |  | binds | no binding (condition: asynchronous or DT/R-0 h cells) | binds | binds | 
TUBB3, endogenous (from UniProt Q13509 1-450) |  |  |  | binds | binds | 
catalytic subunit of the serine/threonine-protein phosphatase 2A alpha isoform (PPP2CA), endogenous (from UniProt P67775 1-309) |  |  |  |  | binds | 
B1 |  |  |  |  | binds | binds

Reference: article PMC11094195
